According to publication PMC4379058, “The Biochemical Properties of the Arabidopsis Ecto-Nucleoside Triphosphate Diphosphohydrolase AtAPY1 Contradict a Direct Role in Purinergic Signaling” (PLoS ONE, 2015):
These are yes or no findings as the source states them, for the method shown. For some assays here: Where a sequence is shown, tags or fusion partners need not be part of it.

Key:
[1] = biological target: Legionella pneumophila NTPDase1 (LpNTPDase1), His6-tagged (Legionella pneumophila) (UniProt Q5ZUA2); experiment: far-Western, overlay or dot blot; both purified
[2] = biological target: T1, AtAPY1-δTM (soluble form of AtAPY1 without the transmembrane domain, C-terminal His6-tag) (Arabidopsis thaliana) (UniProt Q9SQG2); experiment: far-Western, overlay or dot blot; CaM overlay as with calcium, but Ca2+ replaced with 5 mM EGTA in all pertinent solutions; exposure 60 s against 1 s; both purified
T1 sequence: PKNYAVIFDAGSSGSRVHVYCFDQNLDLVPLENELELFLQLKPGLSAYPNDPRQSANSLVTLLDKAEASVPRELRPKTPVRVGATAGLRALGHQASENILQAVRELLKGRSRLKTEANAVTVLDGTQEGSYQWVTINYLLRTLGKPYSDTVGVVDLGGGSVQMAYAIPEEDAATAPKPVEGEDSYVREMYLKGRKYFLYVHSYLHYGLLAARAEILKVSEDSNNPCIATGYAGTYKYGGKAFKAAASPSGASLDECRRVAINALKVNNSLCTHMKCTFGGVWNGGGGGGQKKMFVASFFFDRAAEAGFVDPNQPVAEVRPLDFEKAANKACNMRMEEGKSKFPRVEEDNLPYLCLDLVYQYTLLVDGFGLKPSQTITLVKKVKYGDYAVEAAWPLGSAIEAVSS

## calmodulin 2 from A. thaliana (AtCaM2), N-terminally His6-tagged, biotinylated (from UniProt P0DH97 1-149)
[1]
  binding: no binding (tested: 200 ng/mL AtCaM2)
[2]
  binding: no binding (condition: Ca2+ replaced with 5 mM EGTA)
